Experimental data: PubChem BioAssay AID504444 (National Center for Advancing Translational Sciences (NCATS), 2011)
Screen size: about 360,000 compounds; about 7,500 (2.1%) were called active. Inconclusive means that the source gave no clear call. Such entries were picked first, then a sample of the others. The call rests on the fitted dose curve; in most records, active means well fitted inhibition curve with a large enough effect; inconclusive means small, poorly fitted or top-dose-only effect, or effect the other way; inactive means flat fitted curve, though single readings scatter. Where the call is inconclusive, the potency comes from a doubtful curve fit. More than one record can exist for a structure, and the calls need not agree.

assay: Nrf2 qHTS screen for inhibitors; settings: A549 ARE-Fluc reporter, luciferase luminescence, 18-24 h; series mostly up to 46 µM; further: nearly all actives have a fitted effect of over 60% in size
Outline: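 Quantitative HTS in A549 cells stably bearing an antioxidant response element-firefly luciferase construct. Inhibition of Nrf2-driven transcription was scored by luminescence after 18-24 h of compound exposure at 37 °C.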
Potency means the concentration at half of the fitted maximal effect.

Row | Compound | Potency
1 | O=C1NC(=O)N(c2cccc(Br)c2)C(=O)/C1=C/c1ccsc1 | inactive
2 | O=C1NC(=O)N(CCc2ccc(F)cc2)C(=O)/C1=C/C=C/c1ccccc1 | inconclusive: 29.1 µM [falling, single point]
3 | CCOc1ccc(-c2c(C)n(-c3ccc(OCC)cc3)c3[n+]2CCCCC3)cc1 | active: 2.59 µM
4 | O=C(CSc1nc2ccccc2c(=O)[nH]1)NCc1ccc(Cl)cc1 | inconclusive: 1.84 µM [falling, full curve, poor fit]
5 | COc1ccc(OC)c(NC(=O)Cn2cc(C(=O)c3ccccc3F)c3ccccc32)c1 | inactive
6 | COc1cccc(NC(=O)N2CCC3(CC2)OCCO3)c1 | inconclusive: 10.3 µM [activator, partial curve]
7 | COC(=O)C1=C(c2cccc(OCc3ccccc3)c2)C[C@@H]2CC[C@H]1N2C(=O)NCc1ccccc1C(F)(F)F | inconclusive: 29.1 µM [falling, single point]
8 | CC(NC1CCCCC1)C(O)C12CC3CC(CC(C3)C1)C2 (configuration not stated) | inconclusive: 18.4 µM [falling, single point]
9 | Cc1nc2c(-c3ccc(F)cc3)c(C)nn2c(C)c1CCC(=O)N1CCC2(CC1)OCCO2 | inconclusive: 7.31 µM [falling, partial curve, poor fit]
10 | O=C(NCCN1CCCCC1)c1ccc(Cl)nc1Cl | inconclusive: 6.51 µM [falling, single point]
11 | O=c1[nH]c2ccccc2n1C1CCN(CCCC(c2ccc(F)cc2)c2ccc(F)cc2)CC1 | inconclusive: 18.4 µM [falling, single point]
12 | Cc1ccc(-c2nn(C)c(=O)c3ccccc23)cc1CNC(=O)/C=C/c1ccccc1 | inconclusive: 25.9 µM [falling, single point]
13 | O=C(Cn1c(=O)oc2cc(S(=O)(=O)N3CCCC3)ccc21)Nc1cccc(C(F)(F)F)c1 | inconclusive: 14.6 µM [falling, partial curve, poor fit]
14 | CCC1(c2ccccc2)C(=O)N(C)C(=O)N(C)C1=O | inactive
15 | CN(C)CC1CSCCC1(O)c1ccc(Cl)cc1 (configuration not stated) | inconclusive: 1.64 µM [falling, full curve, poor fit]
16 | CC(C)(C)c1ccc(OC(=O)N2CCCCC2)cc1 | inconclusive: 2.59 µM [activator, full curve]
17 | CCN1C(=O)NC(=O)C2(CCCC2)C1=O | inactive
18 | O=C(/C=C/c1ccc2c(c1)OCO2)c1c(O)n(CCc2ccccc2)c(=O)[nH]c1=O | inconclusive: 29.1 µM [falling, single point]
19 | c1ccc(CN2CCN(Cc3ccc4ccccc4c3)CC2)cc1 | inconclusive: 2.59 µM [activator, partial curve, poor fit]
20 | CCn1c(O)c(/C=N/N2CCOCC2)c(=O)n(CC)c1=S | inconclusive: 11.6 µM [falling, partial curve]
21 | COc1ccc(CCNC(=O)C(=O)NCC2OCCN2S(=O)(=O)c2ccc(Cl)cc2)cc1 (configuration not stated) | inconclusive: 20.6 µM [falling, single point]
22 | CCCCCn1c(=O)c(C(=O)Nc2nc3ccccc3[nH]2)c(O)c2ccccc21 | active: 2.59 µM
23 | C#C[C@]1(O)CCC2C3CCC4=C/C(=N/OCC(=O)NC(C)C(=O)NC(CCSC)C(=O)O)CC[C@]4(C)C3CC[C@@]21C (some centres not stated) | inactive

Row | Compound | Potency
24 | CCOc1ccc(C2CC(c3c(O)n(C)c(=O)n(C)c3=O)=NN2)cc1 (configuration not stated) | inactive
25 | CCOc1ccc(N2C(=O)/C(=C\c3cccs3)C(=O)NC2=S)cc1 | inconclusive: 29.1 µM [falling, single point]
26 | CC1C(=O)C(C)C(c2ccc(Cl)cc2)NC1c1ccc(Cl)cc1 (configuration not stated) | inconclusive: 23.1 µM [activator, single point]
27 | CC(C)c1cccc(C(C)C)c1OCCn1ccnc1 | inactive
28 | Cc1c(C(c2ccc(F)cc2)c2c(O)c3ccccc3oc2=O)c(=O)n(-c2ccccc2)n1C (configuration not stated) | inactive
29 | COc1ccc(CCC(C)NCCc2ccccc2)cc1 (configuration not stated) | inactive
30 | COC(=O)C1=C(c2cccc(OCc3ccccc3)c2)C[C@@H]2CC[C@H]1N2C(=O)NCc1cccc(F)c1 | inconclusive: 13 µM [falling, partial curve]
31 | Fc1ccc(C[n+]2c(-c3ccccc3)cc(-c3ccccc3)cc2-c2ccccc2)cc1 | active: 18.4 µM
32 | CCCOP(=O)(OCCC)C(Nc1ccc(C(C)C)cc1)c1ccc([N+](=O)[O-])cc1 (configuration not stated) | inconclusive: 20.6 µM [falling, single point]
33 | CCC(=NCCC(c1ccccc1)c1ccccc1)c1c(O)n(C)c(=O)n(C)c1=O | inactive
34 | COC(=O)C1=C(c2cccc(OCc3ccccc3)c2)C[C@@H]2CC[C@H]1N2C(=O)NCc1ccc(OC)cc1 | inconclusive: 25.9 µM [falling, partial curve, poor fit]
35 | O=P1(Oc2ccccc2)CC(O)C(O)C(COCc2ccccc2)O1 (configuration not stated) | inactive
36 | O=[N+]([O-])c1cccc(CN2CCN(Cc3ccc(Br)cc3)CC2)c1 | inconclusive: 23.1 µM [falling, partial curve, poor fit]
37 | Cc1ccc(C2=NC(C)(C)N3C2C3c2ccc([N+](=O)[O-])cc2)cc1 (configuration not stated) | inactive
38 | COC(=O)c1c(C)n(Cc2ccccc2)c2ccc(O)cc12 | inactive
39 | COc1ccc(NC(=O)CCCn2c(=O)oc3ccccc32)cc1Cl | inconclusive: 0.58 µM [activator, full curve]
40 | CN(Cc1ccccc1)C(=O)c1cccc(NC(=O)Cc2ccc([N+](=O)[O-])cc2)c1 | inconclusive: 20.6 µM [falling, single point]
41 | O=C(c1cc2c(s1)CCCC2)N1CCC2(CC1)OCCO2 | inconclusive: 18.4 µM [activator, single point]
42 | CCC(=O)OC(Cc1ccccc1)(c1ccccc1)C(C)CN(C)C (configuration not stated) | inactive
43 | CC(C)CNC(=O)c1c(N)n(Cc2ccco2)c2nc3ccccc3nc12 | inconclusive: 29.1 µM [falling, single point]
44 | O=C(c1ccc(N2CCCCCC2)c([N+](=O)[O-])c1)N1CCC2(CC1)OCCO2 | active: 23.1 µM
45 | COc1cc(C)c(CN2CCN(c3ccccc3)CC2)cc1C | inactive
46 | COc1ccccc1CN1CCCCC1c1cccnc1 (configuration not stated) | inconclusive: 25.9 µM [falling, partial curve, poor fit]

Random excerpt: 4 entries already listed.
Row | Compound | Potency
8 | CC(NC1CCCCC1)C(O)C12CC3CC(CC(C3)C1)C2 (configuration not stated) | inconclusive: 18.4 µM [falling, single point]
29 | COc1ccc(CCC(C)NCCc2ccccc2)cc1 (configuration not stated) | inactive
15 | CN(C)CC1CSCCC1(O)c1ccc(Cl)cc1 (configuration not stated) | inconclusive: 1.64 µM [falling, full curve, poor fit]
5 | COc1ccc(OC)c(NC(=O)Cn2cc(C(=O)c3ccccc3F)c3ccccc32)c1 | inactive

More records follow:

Row | Compound | Potency
47 | COc1ccc(S(=O)(=O)Nc2ccccc2OC)cc1N=Nc1c(O)[nH]c(=S)[nH]c1=O | inconclusive: 20.6 µM [falling, single point]
48 | Cc1ccc(C)c(N2CCN(C(=O)CCS(=O)(=O)c3ccc4c(c3)oc(=O)n4C)CC2)c1 | active: 20.6 µM
49 | CCOC(=O)c1c(-n2c(C)cc(C=C3C(=O)NC(=O)NC3=O)c2C)sc2c1CCCC2 | inactive
50 | C(#CCN1CCOCC1)COCc1ccccc1 | inconclusive: 29.1 µM [activator, single point]
51 | Cc1c(N)c(C)c([N+](=O)[O-])c(C)c1[N+](=O)[O-] | inconclusive: 29.1 µM [falling, single point]
52 | O=c1oc2ccccc2c(O)c1C(c1ccc([N+](=O)[O-])cc1)c1c(O)c2ccccc2oc1=O | inconclusive: 25.9 µM [falling, partial curve, poor fit]
53 | COc1ccc(-c2nc3ccc(C(=O)N4CCC5(CC4)OCCO5)cc3nc2-c2ccc(OC)cc2)cc1 | inconclusive: 11.6 µM [falling, partial curve, poor fit]
54 | O=c1cc(C(F)(F)F)c2cc3c4c(c2o1)CCCN4CCC3 | inconclusive: 0.0291 µM [falling, full curve, poor fit]
55 | Cc1ccc(-c2nnc(Nc3ccc(OC(F)(F)Cl)cc3)c3ccccc23)cc1S(=O)(=O)NC(C)(C)CO | inconclusive: 29.1 µM [falling, single point]
56 | C#CC(C)(CC)NC(=O)Cn1nnc(-c2ccc(OCc3ccccc3C)cc2)n1 (configuration not stated) | inconclusive: 16.4 µM [falling, single point]
57 | C[Se]C[C@@H](N)C(=O)O | inconclusive: 29.1 µM [activator, single point]
58 | CCC12CN3CC(CC)(CN(C1)C3c1ccccn1)C2=O (configuration not stated) | inactive
59 | COc1ccc(NC(=O)CSc2nc(-c3cccs3)cc(C(F)(F)F)n2)cc1Cl | inconclusive: 23.1 µM [falling, single point]
60 | CC(=O)Nc1ccc(OC(=O)N2CCCCC2)cc1 | inconclusive: 5.17 µM [falling, partial curve]
61 | COc1ccc(OC)c(N2Cc3ccccc3C2=N)c1 | inactive
62 | CCOC(=O)[C@@]1(C#N)C(c2ccc(Cl)c(Cl)c2)[C@H](C(N)=O)N2C=C(C(C)=O)C=C[C@H]21 (some centres not stated) | inconclusive: 29.1 µM [activator, partial curve, poor fit]
63 | Cc1ccc(NS(=O)(=O)c2ccc(OCC(=O)N3CCN(C)CC3)cc2)cc1 | inconclusive: 18.4 µM [falling, partial curve, poor fit]
64 | COCCNC(=O)N1[C@H]2CC[C@@H]1C(C(=O)OC)=C(c1ccc(OC(F)(F)F)cc1)C2 | inconclusive: 11.6 µM [falling, partial curve, poor fit]
65 | COc1cc(C2c3cc4c(cc3C(O)C3COC(=O)C23)OCO4)cc(OC)c1OC (configuration not stated) | inconclusive: 0.164 µM [activator, full curve, poor fit]
66 | Cc1cc(-c2ccccc2)cc(-c2ccccc2)[n+]1CCc1ccccc1 | inconclusive: 1.84 µM [falling, full curve]
67 | CC(C)(C)c1ccc(C(=O)C2CCCN(Cc3ccon3)C2)cc1 (configuration not stated) | inconclusive: 23.1 µM [activator, partial curve, poor fit]
